Measured values published in paper doi:10.1101/2022.09.29.510028.
No constants are given. Whether binding was seen depends on the method and setting. Some entries that bind do so weakly or less than the wild type.

Key:
[1] = target: NPM1_(188) (NTD and the acidic regions of the IDR, residues 1-188) (human); experiment: native MS
[2] = target: NPM1_(240-294) (isolated C-terminal nucleotide-binding domain) (human); experiment: native MS

B1: NPM1_(240-294) (isolated C-terminal nucleotide-binding domain) (domain or fragment)
chain: GPSSVEDIKAKMQASIEKGGSLPKVEAKFINYVKNCFRMTDQEAIQDLWQWRKSL
binding [1]: binds weakly
binding [2]: no binding
